Some entries share one result that the patent states for a list of compounds.
Tested on: M. tuberculosis H37Rv-GFP
Format: cell-based, Mycobacterium tuberculosis
Conditions: read-out: average EC50_H37Rv

SMILES | EC50
O=C(CCC(F)(F)F)N1CC(c2ccc(F)cc2F)C1 [Example 18, 1-[3-(2,4-difluorophenyl)azetidin-1-yl]-4,4,4-trifluoro-butan-1-one] | ≤ 10 nM
O=C(CCC(F)(F)F)N1CC(c2cc(F)c(F)c(F)c2)C1 [Example 34, 4,4,4-trifluoro-1-[3-(3,4,5-trifluorophenyl)azetidin-1-yl]butan-1-one] | ≤ 10 nM
O=C(CCC(F)(F)F)N1CC(c2cccc(Cl)c2)C1 [Example 17, 1-[3-(3-chlorophenyl)azetidin-1-yl]-4,4,4-trifluoro-butan-1-one] | ≤ 10 nM

Source: patent US11253499B2, “Compounds” (priority 2017, dated 2022)
